Data on 1 substance can be found in patent publication US6709838.

Amino acid sequences for entries named in this document (tags omitted). A change or cut given only in a name is not applied to a line headed by its entry.
UniProt Q9Y6C5: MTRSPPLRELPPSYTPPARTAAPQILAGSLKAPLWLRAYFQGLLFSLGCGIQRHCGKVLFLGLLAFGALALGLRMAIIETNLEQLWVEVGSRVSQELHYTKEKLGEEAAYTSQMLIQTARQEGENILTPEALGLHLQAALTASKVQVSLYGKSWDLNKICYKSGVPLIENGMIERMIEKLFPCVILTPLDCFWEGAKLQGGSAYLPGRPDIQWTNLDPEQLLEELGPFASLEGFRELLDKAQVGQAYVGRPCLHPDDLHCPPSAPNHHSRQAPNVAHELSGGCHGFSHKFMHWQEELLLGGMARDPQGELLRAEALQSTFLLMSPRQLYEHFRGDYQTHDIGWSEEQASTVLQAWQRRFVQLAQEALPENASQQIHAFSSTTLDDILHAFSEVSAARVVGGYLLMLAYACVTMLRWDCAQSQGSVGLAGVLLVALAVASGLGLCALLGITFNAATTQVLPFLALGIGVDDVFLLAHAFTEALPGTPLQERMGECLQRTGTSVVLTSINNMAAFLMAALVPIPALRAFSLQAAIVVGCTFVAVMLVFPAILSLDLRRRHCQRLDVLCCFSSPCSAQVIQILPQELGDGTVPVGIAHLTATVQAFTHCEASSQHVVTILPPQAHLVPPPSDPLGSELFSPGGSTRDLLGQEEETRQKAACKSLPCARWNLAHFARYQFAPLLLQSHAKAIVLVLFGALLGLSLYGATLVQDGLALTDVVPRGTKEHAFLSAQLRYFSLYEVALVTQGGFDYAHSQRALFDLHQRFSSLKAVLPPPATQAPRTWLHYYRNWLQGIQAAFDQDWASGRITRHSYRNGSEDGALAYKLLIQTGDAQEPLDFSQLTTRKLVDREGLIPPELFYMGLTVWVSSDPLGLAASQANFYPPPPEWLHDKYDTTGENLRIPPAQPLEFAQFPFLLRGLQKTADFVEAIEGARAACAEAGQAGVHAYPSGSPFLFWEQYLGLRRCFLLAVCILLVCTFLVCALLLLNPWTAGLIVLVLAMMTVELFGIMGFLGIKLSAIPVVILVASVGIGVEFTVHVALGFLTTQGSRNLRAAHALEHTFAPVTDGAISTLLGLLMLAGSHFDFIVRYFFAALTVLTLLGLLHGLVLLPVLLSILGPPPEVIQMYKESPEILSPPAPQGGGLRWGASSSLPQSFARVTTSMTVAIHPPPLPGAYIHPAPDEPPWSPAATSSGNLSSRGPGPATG

Assay [1] addresses human Ptch-2 (SEQ ID NO:2), overexpressed on transfected human 293 embryonic kidney cells (human) (UniProt Q9Y6C5). Briefly: 125I-Shh competition on transfected 293 cells (FIG. 7A legend).
For assay [2] the target is unchanged. Briefly: 125I-Shh competition on transfected 293 cells.

These are yes or no findings as the source states them, for the method shown. Some entries that bind do so weakly or less than the wild type.

Turning to “Dhh (SEQ ID NO:13) (from UniProt Q61488 23-198) (ligand)”, the binding entry in assay [1] and in assay [2] was “binds” each time.
